The other results are listed elsewhere or left out.

In this test the target is T1, OsSMF1 (Oryza sativa, UniProt Q6ZLB0 1-436).
T1 sequence: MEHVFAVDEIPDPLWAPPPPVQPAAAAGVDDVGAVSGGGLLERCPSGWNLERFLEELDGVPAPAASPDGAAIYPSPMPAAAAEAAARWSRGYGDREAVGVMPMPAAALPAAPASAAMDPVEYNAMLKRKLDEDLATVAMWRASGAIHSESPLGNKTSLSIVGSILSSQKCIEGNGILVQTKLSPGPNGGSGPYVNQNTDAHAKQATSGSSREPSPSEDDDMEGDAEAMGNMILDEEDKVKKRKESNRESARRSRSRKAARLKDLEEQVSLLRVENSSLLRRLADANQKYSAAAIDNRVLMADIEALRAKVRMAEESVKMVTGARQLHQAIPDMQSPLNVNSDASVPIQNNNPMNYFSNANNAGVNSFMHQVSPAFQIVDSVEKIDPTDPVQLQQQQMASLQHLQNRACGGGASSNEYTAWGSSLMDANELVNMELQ
Nature of the test: protein-binding microarray (RPBM); PBS, 2% BSA, 51.3 ng/ul salmon testes DNA, 50 uM zinc acetate, 200 nM TF, 25 C, 1 h; high values mean tight binding. The conditions noted are these: protein: recombinant; tags: N-terminal polyhistidine and DsRed monomer fusion (pET32a); chain copies: 2; label: CyDye5-dUTP incorporated in the synthesized complementary strand; 3' TTTTT single-stranded linker to array surface; dsDNA, one strand shown. Summed up:
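An Axon 4000B scanner gave the binding signal as per-feature fluorescence intensity in arbitrary units. This followed washing of a custom Agilent array that had been incubated for 1 h at 25 °C with 200 nM protein in PBS, 2% BSA, salmon testes DNA and 50 µM zinc acetate. The proteins were transcription factors fused at the N-terminus to polyhistidine and DsRed, expressed in E. coli BL21-CodonPlus and purified on Ni–NTA.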
Turning to “ATGAACAATGACAGATTATGATTTATGCAACGAAAACCTGCGGAGTCACCTAGTGCAG”, the binding signal was 3210 fluorescence intensity (a.u.).

Regarding “AATGATCAATATTGGCACGATGACTGTGTTTATTTCCTTTCGGAGTCACCTAGTGCAG”, the binding signal is 6240 fluorescence intensity (a.u.).

Regarding “CCCTGCTGGCTGTGCAGACAACGCAAGCGTGGCACATGTGCGGAGTCACCTAGTGCAG”, the binding signal is 3920 fluorescence intensity (a.u.).

Consider “TCACCAAATAGTTCTGACACGTGGCGCACTAGTTATTGTACGGAGTCACCTAGTGCAG”, for which the binding signal was 10200 fluorescence intensity (a.u.). Turning to “CCACGTGTAATTACCGATCTGCCCCTCCCAGCCCACGTCACGGAGTCACCTAGTGCAG”, the binding signal was 9660 fluorescence intensity (a.u.). Consider “ACCTGTGGACTTGCACGGTAACGTAGCACAATCTTCAAAGCGGAGTCACCTAGTGCAG”, for which the binding signal is 3810 fluorescence intensity (a.u.). In the case of “TGCCATCCACGAGTCGCACACTCGTAAGCCACGTCGCCACCGGAGTCACCTAGTGCAG”, the binding signal is 8550 fluorescence intensity (a.u.). Consider “CCTTCCCTAGGGGCGGAGCCACGTAGCTTGGGCCCCACACCGGAGTCACCTAGTGCAG”, for which the binding signal is 6430 fluorescence intensity (a.u.).

Take “CGTCTATCCCCACAGCCACACAACGTGTCCTCAAATTCCGCGGAGTCACCTAGTGCAG”: the binding signal was 3720 fluorescence intensity (a.u.). As to “CGGACTGAGCTGCCTCGCCCGCCTCCGAGCAGTTGGGGAACGGAGTCACCTAGTGCAG”, the binding signal is 40900 fluorescence intensity (a.u.). In the case of “TAGCATAGCCTAATCACCGTCTCCTTCATCTCTAATCACGCGGAGTCACCTAGTGCAG” it was 4220 fluorescence intensity (a.u.); in that of “CGTCACCTCCACCGCCGCCTTGCTCCCTGAGCCGACGCCACGGAGTCACCTAGTGCAG”, 3550 fluorescence intensity (a.u.); in that of “AATCAAGGAAGCGGAGGCAGCAAGACCGCGACGAAATCCGCGGAGTCACCTAGTGCAG”, 13500 fluorescence intensity (a.u.).

On to “CTACATACAATATTTAAAACTTGATGCAATCCACGGAACACGGAGTCACCTAGTGCAG”, for which the binding signal was 18700 fluorescence intensity (a.u.). For “TACTCGTATCCATCGATCGGAAGAATCCCAGTCGCCGGCGCGGAGTCACCTAGTGCAG”, the binding signal was 3230 fluorescence intensity (a.u.). As to “GCAACCTCTACCTCAATGTGTCGTGTCACACCGGAGCTCTCGGAGTCACCTAGTGCAG”, the binding signal was 7200 fluorescence intensity (a.u.).

Consider “GTGTTGAGATGATGACAGCACTTATGTACTCTTCTAAAGTCGGAGTCACCTAGTGCAG”, for which the binding signal is 3260 fluorescence intensity (a.u.). In the case of “CGGTGGTAGGCGCGTACGTGTCCCTGTGCAGCGCACCGCGCGGAGTCACCTAGTGCAG” it was 5440 fluorescence intensity (a.u.); in that of “TGCATGCATTATGACTTTTGACTTGTGACACATAGTCACACGGAGTCACCTAGTGCAG”, 3760 fluorescence intensity (a.u.); in that of “GCAGAATACAAAATATCCACACTTCCACGTTGCCACAGAGCGGAGTCACCTAGTGCAG”, 4090 fluorescence intensity (a.u.).

With “TGGGTTTCCGTGTCCAACGTTTGACTGTCCGTCTTATATGCGGAGTCACCTAGTGCAG”, the binding signal was 3250 fluorescence intensity (a.u.). In the case of “AGACACCATCGCTCCACCGCTAGATTCAAGCGTCTTCAAGCGGAGTCACCTAGTGCAG” it was 3150 fluorescence intensity (a.u.).

As for “CAAGCGCCGACCCTGGTGGCCCGCCCACCTCCTCCCCGACCGGAGTCACCTAGTGCAG”, the binding signal was 3360 fluorescence intensity (a.u.). In the case of “GTTTATATGTCAGTTGCTAAGGATATACAACAGGATGATGCGGAGTCACCTAGTGCAG” it was 12300 fluorescence intensity (a.u.).

As to “GCATAAATGATGTGTTTCTGAATCCAATTACACACATGATCGGAGTCACCTAGTGCAG”, the binding signal was 5020 fluorescence intensity (a.u.). Turning to “TCATAAAGGAAGAGGAATCTACATATCACTAGCTGCAAATCGGAGTCACCTAGTGCAG”, the binding signal is 4010 fluorescence intensity (a.u.). Turning to “TGTGTGCTGCTGCGTCATCCCATACGCCTCTGCCCGGTGGCGGAGTCACCTAGTGCAG”, the binding signal was 15500 fluorescence intensity (a.u.). In the case of “TCCTCATAGCTGACCAAATCTCTGCTGTGACAGCAATCTCCGGAGTCACCTAGTGCAG”, the binding signal was 4150 fluorescence intensity (a.u.). For “CCAGATATCTTTTACTAAAGGATGGAAATGAGGCGTAATTCGGAGTCACCTAGTGCAG”, the binding signal was 29100 fluorescence intensity (a.u.).

For the sequence “ATTTCCACCTGCTCATCTATATCTATCTATCATCAAGCTGCGGAGTCACCTAGTGCAG”, the binding signal is 4010 fluorescence intensity (a.u.). In the case of “GAAACAACTCAACCGCAGCAGTTGTCTCGTCTCGTCAGTTCGGAGTCACCTAGTGCAG” it was 3850 fluorescence intensity (a.u.); in that of “ATCACGCCAGTCACCACGCTTGGCATATGCTGGTAAATATCGGAGTCACCTAGTGCAG”, 30400 fluorescence intensity (a.u.); in that of “CCTTCGCTCGCCACGTGGCAGCCGCTAGTCCTTATCGCCGCGGAGTCACCTAGTGCAG”, 37400 fluorescence intensity (a.u.). In the case of “GGAGCGGCGGCTGCCGTTCTGCGTGCTGAGCGACCGGAGGCGGAGTCACCTAGTGCAG”, the binding signal was 5460 fluorescence intensity (a.u.).

As for “AACAAGATTCGGCCCGCAGGCCACATGCCACGTGCTGCATCGGAGTCACCTAGTGCAG”, the binding signal is 8640 fluorescence intensity (a.u.). In the case of “CATTCACAACAAGCTCTAGTGATGATAGATGGACATACTGCGGAGTCACCTAGTGCAG” it was 4190 fluorescence intensity (a.u.); in that of “GTTGGTGGTGGTGGTGGTAGCTTTGGGGCGTTTGGCTCGGCGGAGTCACCTAGTGCAG”, 3670 fluorescence intensity (a.u.); in that of “GATTAATTGATTTATTTCTTTCTGCTTTACCCGGTCGCCACGGAGTCACCTAGTGCAG”, 19200 fluorescence intensity (a.u.). As to “TCTTGGACTAATTCGCGAGATGAATCTTTTGAGTCTAATTCGGAGTCACCTAGTGCAG”, the binding signal was 19600 fluorescence intensity (a.u.).

Consider “GTCATATTAGTAATGTGCATCATTCATGTCATAATAATCACGGAGTCACCTAGTGCAG”, for which the binding signal is 3250 fluorescence intensity (a.u.). In the case of “ACAGTACTTGGCTGTAGCGGGCATCTTGTCCTGGCATGTGCGGAGTCACCTAGTGCAG” it was 3600 fluorescence intensity (a.u.); in that of “CAGATGCTTCGCCGCGCGTGCACACGTGTCGTCGTCGGCGCGGAGTCACCTAGTGCAG”, 16400 fluorescence intensity (a.u.).

These data come from paper PMC7819943, “Rice protein-binding microarrays: a tool to detect cis-acting elements near promoter regions in rice”.
